# From the supplement of paper PMC8728848
# Some of the results follow.
# B1: YghJ (Escherichia coli), E3PJ90 (protein)
# chain: MNKKFKYKKSLLAAILSATLLAGCDGGGSGSSSDTPPVDSGTGSLPEVKPDPTPNPEPTPEPTPDPEPTPEPIPDPEPTPEPEPEPVPTKTGYLTLGGSQRVTGATCNGESSDGFTFKPGEDVTCVAGNTTIATFNTQSEAARSLRAVEKVSFSLEDAQELAGSDDKKSNAVSLVTSSNSCPANTEQVCLTFSSVIESKRFDSLYKQIDLAPEEFKKLVNEEVENNAATDKAPSTHTSPVVPVTTPGTKPDLNASFVSANAEQFYQYQPTEIILSEGRLVDSQGYGVAGVNYYTNSGRGVTGENGEFSFSWGEAISFGIDTFELGSVRGNKSTIALTELGDEVRGANIDQLIHRYSTTGQNNTRVVPDDVRKVFAEYPNVINEIINLSLSNGATLGEGEQVVNLPNEFIEQFNTGQAKEIDTAICAKTDGCNEARWFSLTTRNVNDGQIQGVINKLWGVDTNYKSVSKFHVFHDSTNFYGSTGNARGQAVVNISNAAFPILMARNDKNYWLAFGEKRAWDKNELAYITEAPSIVRPENVTRETASFNLPFISLGQVGDGKLMVIGNPHYNSILRCPNGYSWNGGVNKDGQCTLNSDPDDMKNFMENVLRYLSNDRWLPDAKSSMTVGTNLETVYFKKHGQVLGNSAPFAFHKDFTGITVKPMTSYGNLNPDEVPLLILNGFEYVTQWGSDPYSIPLRADTSKPKLTQQDVTDLIAYMNKGGSVLIMENVMSNLKEESASGFVRLLDAAGLSMALNKSVVNNDPQGYPDRVRQRRSTPIWVYERYPAVDGKPPYTIDDTTKEVIWKYQQENKPDDKPKLEVASWQEEVEGKQVTQFAFIDEADHKTPESLAAAKQRILDAFPGLEVCKDSDYHYEVNCLEYRPGTDVPVTGGMYVPQYTQLDLSADTAKAMLQAADLGTNIQRLYQHELYFRTNGRQGERLNSVDLERLYQNMSVWLWNETKYRYEEGKEDELGFKTFTEFLNCYTNNAYVGTQCSAELKKSLIDNKMIYGEESSKAGMMNPSYPLNYMEKPLTRLMLGRSWWDLNIKVDVEKYPGVVNTNGETVTQNINLYSAPTKWFAGNMQSTGLWAPAQQEVSIESKSTVPVTVTVALADDLTGREKHEVSLNRPPRVTKTYDLKANDKVTFKVPYGGLIYIKGDSKEVQSADFTFTGVVKAPFYKDGKWQHDLNSPAPLGELESASFVYTTPKKNLNASNYTGGLEQFANDLDTFASSMNDFYGRDSEDGKHRMFTYKNLPGHKHRFANDVQISIGDAHSGYPVMNSSFSPNSTTLPTTPLNDWLIWHEVGHNAAETPLTVPGATEVANNVLALYMQDRYLGKMNRVADDITVAPEYLEESNGQAWARGGAGDRLLMYAQLKEWAEKNFDIKKWYPDGTPLPEFYSEREGMKGWNLFQLMHRKARGDEVSNDKFGGKNYCAESNGNAADTLMLCASWVAQTDLSEFFKKWNPGANAYQLPGASEMSFEGGVSQSAYNTLASLDLPKPEQGPETINQVTEHKMSAE
# What was measured:
# Assay in all cases: glycan array binding signal (z-score within array); higher = stronger binding
# Conditions in all cases: glycan notation: IUPAC condensed, linker removed
# [1] = target: GlcNAc(b1-3)Gal(b1-4)GlcNAc(b1-3)Gal(b1-4)GlcNAc(b1-2)Man(a1-3)[GlcNAc(b1-3)Gal(b1-4)GlcNAc(b1-3)Gal(b1-4)GlcNAc(b1-2)Man(a1-6)]Man(b1-4)GlcNAc(b1-4)[Fuc(a1-6)]GlcNAc
# In short: (§1)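 The Consortium for Functional Glycomics database supplied 3228 glycan arrays, of which those lacking an available protein sequence were dropped. The binding signal, a within-array Z-score, was averaged across arrays of the same protein sequence and across linkers. Negative scores can be read as non-binding.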
# [2] = target: GlcNAc(b1-3)Gal(b1-4)GlcNAc(b1-3)Gal(b1-4)GlcNAc(b1-2)[GlcNAc(b1-3)Gal(b1-4)GlcNAc(b1-3)Gal(b1-4)GlcNAc(b1-6)]Man(a1-6)[GlcNAc(b1-3)Gal(b1-4)GlcNAc(b1-3)Gal(b1-4)GlcNAc(b1-2)Man(a1-3)]Man(b1-4)GlcNAc(b1-4)[Fuc(a1-6)]GlcNAc
# In short: as §1
# [3] = target: GlcNAc(b1-3)Gal(b1-4)GlcNAc(b1-3)Gal(b1-4)GlcNAc(b1-3)Gal(b1-4)GlcNAc(b1-2)Man(a1-3)[GlcNAc(b1-3)Gal(b1-4)GlcNAc(b1-3)Gal(b1-4)GlcNAc(b1-3)Gal(b1-4)GlcNAc(b1-2)Man(a1-6)]Man(b1-4)GlcNAc(b1-4)GlcNAc
# In short: as §1
# [4] = target: GlcNAc(b1-3)Gal(b1-4)GlcNAc(b1-3)Gal(b1-4)GlcNAc(b1-3)Gal(b1-4)GlcNAc(b1-2)Man(a1-3)[GlcNAc(b1-3)Gal(b1-4)GlcNAc(b1-3)Gal(b1-4)GlcNAc(b1-3)Gal(b1-4)GlcNAc(b1-2)Man(a1-6)]Man(b1-4)GlcNAc(b1-4)[Fuc(a1-6)]GlcNAc
# In short: as §1
# [5] = target: GlcNAc(b1-3)Gal(b1-4)GlcNAc(b1-3)Gal(b1-4)GlcNAc(b1-3)Gal(b1-4)GlcNAc(b1-2)[GlcNAc(b1-3)Gal(b1-4)GlcNAc(b1-3)Gal(b1-4)GlcNAc(b1-3)Gal(b1-4)GlcNAc(b1-6)]Man(a1-6)[GlcNAc(b1-3)Gal(b1-4)GlcNAc(b1-3)Gal(b1-4)GlcNAc(b1-3)Gal(b1-4)GlcNAc(b1-2)Man(a1-3)]Man(b1-4)GlcNAc(b1-4)[Fuc(a1-6)]GlcNAc
# In short: as §1
# [6] = target: GlcNAc(b1-3)Gal(b1-4)GlcNAc(b1-3)Gal(b1-4)GlcNAc(b1-3)Gal(b1-4)GlcNAc(b1-3)Gal(b1-4)GlcNAc(b1-2)Man(a1-3)[GlcNAc(b1-3)Gal(b1-4)GlcNAc(b1-3)Gal(b1-4)GlcNAc(b1-3)Gal(b1-4)GlcNAc(b1-3)Gal(b1-4)GlcNAc(b1-2)Man(a1-6)]Man(b1-4)GlcNAc(b1-4)GlcNAc
# In short: as §1
# [7] = target: GlcNAc(b1-3)Gal(b1-4)GlcNAc(b1-3)Gal(b1-4)GlcNAc(b1-3)Gal(b1-4)GlcNAc(b1-3)Gal(b1-4)GlcNAc(b1-2)Man(a1-3)[GlcNAc(b1-3)Gal(b1-4)GlcNAc(b1-3)Gal(b1-4)GlcNAc(b1-3)Gal(b1-4)GlcNAc(b1-3)Gal(b1-4)GlcNAc(b1-2)Man(a1-6)]Man(b1-4)GlcNAc(b1-4)[Fuc(a1-6)]GlcNAc
# In short: as §1
# [8] = target: GlcNAc(b1-3)Gal(b1-4)GlcNAc(b1-3)Gal(b1-4)GlcNAc(b1-3)Gal(b1-4)GlcNAc(b1-3)Gal(b1-4)GlcNAc(b1-2)[GlcNAc(b1-3)Gal(b1-4)GlcNAc(b1-3)Gal(b1-4)GlcNAc(b1-3)Gal(b1-4)GlcNAc(b1-3)Gal(b1-4)GlcNAc(b1-6)]Man(a1-6)[GlcNAc(b1-3)Gal(b1-4)GlcNAc(b1-3)Gal(b1-4)GlcNAc(b1-3)Gal(b1-4)GlcNAc(b1-3)Gal(b1-4)GlcNAc(b1-2)Man(a1-3)]Man(b1-4)GlcNAc(b1-4)[Fuc(a1-6)]GlcNAc
# In short: as §1
# [9] = target: GlcNAc(b1-3)Gal(b1-4)GlcNAc(b1-3)Gal(b1-4)GlcNAc(b1-3)GalNAc
# In short: as §1
# [10] = target: GlcNAc(b1-3)Gal(b1-4)GlcNAc(b1-3)GalNAc
# In short: as §1
# [11] = target: GlcNAc(b1-3)Gal(b1-4)GlcNAc(b1-3)[GlcNAc(b1-3)Gal(b1-4)GlcNAc(b1-3)]GalNAc
# In short: as §1
# [12] = target: GlcNAc(b1-3)Gal(b1-4)GlcNAc(b1-6)[Gal(b1-3)]GalNAc
# In short: as §1
# [13] = target: GlcNAc(b1-3)Gal(b1-4)GlcNAc(b1-6)[GlcNAc(b1-3)Gal(b1-3)]GalNAc
# In short: as §1
# [14] = target: GlcNAc(b1-3)Gal(b1-4)GlcNAc(b1-6)[GlcNAc(b1-3)]Gal(b1-4)GlcNAc
# In short: as §1
# GlcNAc(b1-3)GalNAc = target: GlcNAc(b1-3)GalNAc
# In short: as §1
# GlcNAc(b1-3)Man = target: GlcNAc(b1-3)Man
# In short: as §1
# [15] = target: GlcNAc(b1-3)[GlcNAc(b1-4)][GlcNAc(b1-6)]GlcNAc
# In short: as §1
# [16] = target: GlcNAc(b1-3)[GlcNAc(b1-6)]Gal(b1-4)GlcNAc
# In short: as §1
# [17] = target: GlcNAc(b1-3)[GlcNAc(b1-6)]GalNAc
# In short: as §1
# [18] = target: GlcNAc(b1-4)Gal(b1-4)GlcNAc
# In short: as §1
# GlcNAc(b1-4)GlcNAc = target: GlcNAc(b1-4)GlcNAc
# In short: as §1
# [19] = target: GlcNAc(b1-4)GlcNAc(b1-4)GlcNAc
# In short: as §1
# [20] = target: GlcNAc(b1-4)GlcNAc(b1-4)GlcNAc(b1-4)GlcNAc(b1-4)GlcNAc
# In short: as §1
binder,measurement,setting,value
B1,glycan array binding signal (z-score),[1],0.066
same,glycan array binding signal (z-score),[2],1.17
same,glycan array binding signal (z-score),[3],-0.344
same,glycan array binding signal (z-score),[4],0.253
same,glycan array binding signal (z-score),[5],-0.384
same,glycan array binding signal (z-score),[6],4.26
same,glycan array binding signal (z-score),[7],0.124
same,glycan array binding signal (z-score),[8],0.112
same,glycan array binding signal (z-score),[9],-0.506
same,glycan array binding signal (z-score),[10],0.071
same,glycan array binding signal (z-score),[11],2.97
same,glycan array binding signal (z-score),[12],2.08
same,glycan array binding signal (z-score),[13],-1.09
same,glycan array binding signal (z-score),[14],-1.26
same,glycan array binding signal (z-score),GlcNAc(b1-3)GalNAc,-0.989
same,glycan array binding signal (z-score),GlcNAc(b1-3)Man,-0.568
same,glycan array binding signal (z-score),[15],-1.48
same,glycan array binding signal (z-score),[16],-1.3
same,glycan array binding signal (z-score),[17],0.594
same,glycan array binding signal (z-score),[18],-0.962
same,glycan array binding signal (z-score),GlcNAc(b1-4)GlcNAc,0.19
same,glycan array binding signal (z-score),[19],-1.02
same,glycan array binding signal (z-score),[20],-0.443

# Taken from the results shown (two entries):
binder,measurement,setting,value
B1,glycan array binding signal (z-score),[13],-1.09
same,glycan array binding signal (z-score),[14],-1.26
